Source: the supplement of paper PMC10849652
This is one part of the list.

Protein sequences, listed by entry. Tags and fused reporters are not part of them. Lines headed by an entry give the natural chain unless they say otherwise; changes in a name come on top.
UniProt Q03468, whole entry, looked up: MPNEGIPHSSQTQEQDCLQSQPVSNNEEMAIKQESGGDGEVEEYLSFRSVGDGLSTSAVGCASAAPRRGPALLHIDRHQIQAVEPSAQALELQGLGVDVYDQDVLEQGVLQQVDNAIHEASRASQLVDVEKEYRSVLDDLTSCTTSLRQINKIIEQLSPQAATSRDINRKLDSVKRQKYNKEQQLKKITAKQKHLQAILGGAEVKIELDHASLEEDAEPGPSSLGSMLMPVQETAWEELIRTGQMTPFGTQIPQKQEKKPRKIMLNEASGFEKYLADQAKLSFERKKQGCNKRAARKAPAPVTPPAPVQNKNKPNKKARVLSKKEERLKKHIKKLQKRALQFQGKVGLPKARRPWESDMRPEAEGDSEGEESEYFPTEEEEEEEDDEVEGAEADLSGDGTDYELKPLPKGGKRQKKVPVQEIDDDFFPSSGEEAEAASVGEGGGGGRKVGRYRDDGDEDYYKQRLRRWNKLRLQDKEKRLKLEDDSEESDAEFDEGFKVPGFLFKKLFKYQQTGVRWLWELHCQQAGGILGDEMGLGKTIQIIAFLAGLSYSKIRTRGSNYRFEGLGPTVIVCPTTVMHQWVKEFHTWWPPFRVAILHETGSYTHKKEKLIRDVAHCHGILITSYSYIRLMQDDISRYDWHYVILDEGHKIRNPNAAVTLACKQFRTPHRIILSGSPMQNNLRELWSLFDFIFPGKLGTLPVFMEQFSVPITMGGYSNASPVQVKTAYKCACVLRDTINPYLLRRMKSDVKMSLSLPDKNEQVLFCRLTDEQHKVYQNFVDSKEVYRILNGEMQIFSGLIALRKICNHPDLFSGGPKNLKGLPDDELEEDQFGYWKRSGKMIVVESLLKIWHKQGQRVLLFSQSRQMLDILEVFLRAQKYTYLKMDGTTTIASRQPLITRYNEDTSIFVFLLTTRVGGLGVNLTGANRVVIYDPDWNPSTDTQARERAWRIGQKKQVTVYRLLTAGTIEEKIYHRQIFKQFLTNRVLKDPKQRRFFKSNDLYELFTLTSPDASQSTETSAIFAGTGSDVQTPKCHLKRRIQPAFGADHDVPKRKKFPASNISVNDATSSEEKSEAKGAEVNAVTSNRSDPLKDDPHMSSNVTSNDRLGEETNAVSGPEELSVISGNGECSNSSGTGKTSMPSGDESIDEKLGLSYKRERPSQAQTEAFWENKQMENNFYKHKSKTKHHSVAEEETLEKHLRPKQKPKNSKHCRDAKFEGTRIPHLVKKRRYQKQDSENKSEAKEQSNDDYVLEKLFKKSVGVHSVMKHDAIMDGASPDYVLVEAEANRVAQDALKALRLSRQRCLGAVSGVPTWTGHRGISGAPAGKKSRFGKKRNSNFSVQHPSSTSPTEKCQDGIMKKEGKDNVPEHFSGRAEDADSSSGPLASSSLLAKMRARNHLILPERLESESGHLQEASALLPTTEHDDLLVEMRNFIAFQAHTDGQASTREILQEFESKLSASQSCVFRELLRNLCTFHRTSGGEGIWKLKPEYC
UniProt Q96A65: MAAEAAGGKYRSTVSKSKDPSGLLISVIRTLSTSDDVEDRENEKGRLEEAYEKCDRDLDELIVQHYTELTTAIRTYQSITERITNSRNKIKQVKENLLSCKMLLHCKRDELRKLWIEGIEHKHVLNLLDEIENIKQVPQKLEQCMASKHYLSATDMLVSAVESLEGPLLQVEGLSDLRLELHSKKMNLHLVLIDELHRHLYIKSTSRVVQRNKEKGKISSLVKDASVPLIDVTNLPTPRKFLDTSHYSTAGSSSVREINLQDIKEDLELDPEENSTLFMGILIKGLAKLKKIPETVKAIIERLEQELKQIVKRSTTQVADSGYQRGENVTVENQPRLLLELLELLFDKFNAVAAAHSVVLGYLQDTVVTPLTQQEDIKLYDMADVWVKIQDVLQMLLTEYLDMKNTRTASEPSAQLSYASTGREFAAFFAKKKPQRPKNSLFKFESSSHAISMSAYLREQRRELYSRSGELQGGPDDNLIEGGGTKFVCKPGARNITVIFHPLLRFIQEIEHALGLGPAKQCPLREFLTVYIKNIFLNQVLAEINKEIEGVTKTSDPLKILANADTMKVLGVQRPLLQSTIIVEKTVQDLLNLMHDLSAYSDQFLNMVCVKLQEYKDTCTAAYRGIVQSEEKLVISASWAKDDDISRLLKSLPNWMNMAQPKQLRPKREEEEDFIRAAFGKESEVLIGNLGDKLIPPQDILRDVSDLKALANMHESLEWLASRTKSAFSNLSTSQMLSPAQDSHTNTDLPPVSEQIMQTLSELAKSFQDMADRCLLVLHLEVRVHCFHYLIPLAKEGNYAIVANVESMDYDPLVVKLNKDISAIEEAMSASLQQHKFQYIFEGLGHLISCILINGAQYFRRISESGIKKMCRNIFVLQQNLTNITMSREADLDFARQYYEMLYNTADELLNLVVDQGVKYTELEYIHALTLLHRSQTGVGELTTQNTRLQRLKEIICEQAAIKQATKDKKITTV
UniProt Q9BSJ8: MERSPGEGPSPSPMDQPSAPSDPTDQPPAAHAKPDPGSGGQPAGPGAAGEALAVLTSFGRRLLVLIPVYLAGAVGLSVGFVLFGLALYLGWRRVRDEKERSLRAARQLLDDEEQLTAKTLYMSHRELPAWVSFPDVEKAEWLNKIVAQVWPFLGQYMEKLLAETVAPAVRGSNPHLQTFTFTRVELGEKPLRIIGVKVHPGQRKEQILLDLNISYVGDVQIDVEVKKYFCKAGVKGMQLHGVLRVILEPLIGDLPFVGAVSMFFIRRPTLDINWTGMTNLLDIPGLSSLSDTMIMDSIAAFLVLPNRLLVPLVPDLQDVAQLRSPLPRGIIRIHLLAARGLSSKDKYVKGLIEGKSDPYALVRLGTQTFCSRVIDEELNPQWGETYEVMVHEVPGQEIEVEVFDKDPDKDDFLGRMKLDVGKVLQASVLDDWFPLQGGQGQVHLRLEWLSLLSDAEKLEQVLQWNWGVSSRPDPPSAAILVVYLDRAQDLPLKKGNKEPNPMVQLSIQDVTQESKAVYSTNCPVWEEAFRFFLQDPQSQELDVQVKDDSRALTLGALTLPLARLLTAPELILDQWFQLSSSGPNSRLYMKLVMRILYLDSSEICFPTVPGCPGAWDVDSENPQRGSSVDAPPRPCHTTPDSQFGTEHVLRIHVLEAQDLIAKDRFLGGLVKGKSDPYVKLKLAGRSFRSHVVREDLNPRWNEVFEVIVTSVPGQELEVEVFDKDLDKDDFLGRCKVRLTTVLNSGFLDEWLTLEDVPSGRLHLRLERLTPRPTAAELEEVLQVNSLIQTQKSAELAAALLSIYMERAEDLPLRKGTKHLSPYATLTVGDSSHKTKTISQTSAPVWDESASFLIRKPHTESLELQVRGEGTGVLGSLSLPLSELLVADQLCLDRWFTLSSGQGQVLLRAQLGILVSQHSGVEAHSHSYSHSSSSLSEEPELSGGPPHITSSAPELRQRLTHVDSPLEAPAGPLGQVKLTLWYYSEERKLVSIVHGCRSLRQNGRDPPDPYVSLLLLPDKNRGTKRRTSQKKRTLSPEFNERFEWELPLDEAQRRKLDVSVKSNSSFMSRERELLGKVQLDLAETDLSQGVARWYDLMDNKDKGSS
UniProt O60645: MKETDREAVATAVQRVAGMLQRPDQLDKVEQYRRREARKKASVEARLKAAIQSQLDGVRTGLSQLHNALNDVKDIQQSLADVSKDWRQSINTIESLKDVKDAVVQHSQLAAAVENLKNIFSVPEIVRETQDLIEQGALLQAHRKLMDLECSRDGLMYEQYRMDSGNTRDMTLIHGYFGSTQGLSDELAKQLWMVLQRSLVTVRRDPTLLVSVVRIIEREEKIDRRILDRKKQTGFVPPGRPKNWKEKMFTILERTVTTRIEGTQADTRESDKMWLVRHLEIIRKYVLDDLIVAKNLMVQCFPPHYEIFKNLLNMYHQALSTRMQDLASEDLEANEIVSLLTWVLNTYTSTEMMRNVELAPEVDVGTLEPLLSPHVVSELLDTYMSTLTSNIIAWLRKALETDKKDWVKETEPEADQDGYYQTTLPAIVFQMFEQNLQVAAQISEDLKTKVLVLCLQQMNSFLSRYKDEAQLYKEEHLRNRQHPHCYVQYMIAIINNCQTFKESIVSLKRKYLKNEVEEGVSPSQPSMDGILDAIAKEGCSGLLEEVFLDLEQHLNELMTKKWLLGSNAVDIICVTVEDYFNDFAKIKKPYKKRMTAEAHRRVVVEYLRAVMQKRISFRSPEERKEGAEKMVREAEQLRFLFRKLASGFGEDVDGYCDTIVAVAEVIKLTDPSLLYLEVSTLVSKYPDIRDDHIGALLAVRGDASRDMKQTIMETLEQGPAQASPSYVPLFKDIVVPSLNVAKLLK
UniProt Q9NPD3, whole entry, looked up: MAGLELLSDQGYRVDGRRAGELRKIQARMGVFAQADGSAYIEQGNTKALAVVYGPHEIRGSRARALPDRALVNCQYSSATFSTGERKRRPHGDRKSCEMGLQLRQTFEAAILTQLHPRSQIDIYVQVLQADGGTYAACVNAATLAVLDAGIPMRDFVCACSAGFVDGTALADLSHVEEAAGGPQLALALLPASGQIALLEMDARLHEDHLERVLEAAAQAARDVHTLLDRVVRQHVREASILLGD
UniProt Q8TBG4: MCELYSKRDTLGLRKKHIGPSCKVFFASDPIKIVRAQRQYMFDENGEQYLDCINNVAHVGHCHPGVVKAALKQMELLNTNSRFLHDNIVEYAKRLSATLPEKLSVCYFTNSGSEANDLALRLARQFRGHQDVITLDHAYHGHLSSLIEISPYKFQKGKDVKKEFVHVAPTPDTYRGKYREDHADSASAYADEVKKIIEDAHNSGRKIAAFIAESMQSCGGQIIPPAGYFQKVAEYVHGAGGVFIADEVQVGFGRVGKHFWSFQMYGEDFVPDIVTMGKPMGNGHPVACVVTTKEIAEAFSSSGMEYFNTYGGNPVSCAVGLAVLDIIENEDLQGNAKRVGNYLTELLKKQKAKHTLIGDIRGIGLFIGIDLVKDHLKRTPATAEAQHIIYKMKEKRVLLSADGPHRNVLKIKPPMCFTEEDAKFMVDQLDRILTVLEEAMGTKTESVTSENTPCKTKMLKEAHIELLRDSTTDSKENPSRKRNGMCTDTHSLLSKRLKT
UniProt Q8IYI6: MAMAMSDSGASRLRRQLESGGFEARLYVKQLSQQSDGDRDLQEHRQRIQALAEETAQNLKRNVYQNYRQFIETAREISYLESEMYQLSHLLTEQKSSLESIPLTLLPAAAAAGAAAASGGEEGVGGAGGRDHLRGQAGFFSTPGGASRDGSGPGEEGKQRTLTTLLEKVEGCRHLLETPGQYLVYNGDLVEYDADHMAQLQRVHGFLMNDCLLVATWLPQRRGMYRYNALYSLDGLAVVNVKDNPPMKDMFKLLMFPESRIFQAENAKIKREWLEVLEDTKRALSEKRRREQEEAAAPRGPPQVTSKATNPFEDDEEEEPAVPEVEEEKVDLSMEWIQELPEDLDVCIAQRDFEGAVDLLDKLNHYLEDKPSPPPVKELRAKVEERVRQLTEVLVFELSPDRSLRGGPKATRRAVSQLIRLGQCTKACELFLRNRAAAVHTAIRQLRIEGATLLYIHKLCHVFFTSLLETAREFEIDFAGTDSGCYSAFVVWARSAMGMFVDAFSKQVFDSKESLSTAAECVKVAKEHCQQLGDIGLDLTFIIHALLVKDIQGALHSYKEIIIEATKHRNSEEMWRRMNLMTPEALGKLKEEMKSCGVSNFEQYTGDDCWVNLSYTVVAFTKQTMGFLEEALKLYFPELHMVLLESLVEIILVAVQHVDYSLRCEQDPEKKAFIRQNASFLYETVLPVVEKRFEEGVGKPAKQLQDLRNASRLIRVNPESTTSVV
UniProt Q5RKV6, whole entry, looked up: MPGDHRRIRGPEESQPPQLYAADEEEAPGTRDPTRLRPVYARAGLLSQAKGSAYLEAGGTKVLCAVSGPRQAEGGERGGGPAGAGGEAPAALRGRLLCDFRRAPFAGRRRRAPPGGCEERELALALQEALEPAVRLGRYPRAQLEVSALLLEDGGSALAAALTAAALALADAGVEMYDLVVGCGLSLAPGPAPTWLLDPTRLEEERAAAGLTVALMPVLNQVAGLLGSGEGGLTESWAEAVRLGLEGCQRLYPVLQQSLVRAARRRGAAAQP
UniProt Q9Y624, whole entry, looked up, stated change not applied: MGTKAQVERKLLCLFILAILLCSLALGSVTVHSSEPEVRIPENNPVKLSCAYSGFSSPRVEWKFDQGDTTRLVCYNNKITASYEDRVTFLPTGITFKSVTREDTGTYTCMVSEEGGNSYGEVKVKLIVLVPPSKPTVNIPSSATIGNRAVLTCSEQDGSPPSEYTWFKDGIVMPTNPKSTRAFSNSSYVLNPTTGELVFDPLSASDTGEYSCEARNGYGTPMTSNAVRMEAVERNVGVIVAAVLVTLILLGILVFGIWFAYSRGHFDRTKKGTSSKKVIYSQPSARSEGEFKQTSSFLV
UniProt Q6IPR1: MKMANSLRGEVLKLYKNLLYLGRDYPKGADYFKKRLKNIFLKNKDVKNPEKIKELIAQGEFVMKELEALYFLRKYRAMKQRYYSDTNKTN

Columns and labels:
Test in all cases: log2 fold change, soluble protein after heating vs DMSO (PISA); higher = thermal stabilisation; K562 cells, 10 uM, 30 min; active = over 0.2 and 3.5 SD of the protein, either way, in both replicates (recomputed)
[1] = compound: COC1=CC=C(C=C1)CN2C=CC3=C2C=C(C=C3)C(=O)NO
Summary of the method: (§1)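 Soluble protein was quantified by TMTpro 16plex LC-MS/MS after channel sums were equalised. It was obtained as the supernatant after 21,000xg for 90 min from pooled aliquots of K562 cells (2×10^6 cells/mL, 10 μM compound, 30 min) heated for 3 min across 48°C-58°C and extracted in PBS with 0.5% NP-40 at 4°C. Thermal stability values are relative to control samples and come from duplicates. They are given as log2 fold changes.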

filanesib = compound: CON(C)C(=O)N1N=C(c2cc(F)ccc2F)S[C@@]1(CCCN)c1ccccc1 [filanesib]
Summary of the method: as §1

zotarolimus = compound: CO[C@H]1C[C@@H]2CC[C@@H](C)[C@@](O)(O2)C(=O)C(=O)N2CCCC[C@H]2C(=O)O[C@H]([C@H](C)C[C@@H]2CC[C@H](n3cnnn3)[C@H](OC)C2)CC(=O)[C@H](C)/C=C(\C)[C@@H](O)[C@@H](OC)C(=O)[C@H](C)C[C@H](C)/C=C/C=C/C=C/1C [zotarolimus]
Summary of the method: as §1

idasanutlin = compound: COc1cc(C(=O)O)ccc1NC(=O)[C@@H]1N[C@@H](CC(C)(C)C)[C@](C#N)(c2ccc(Cl)cc2F)[C@H]1c1cccc(Cl)c1F [idasanutlin]
Summary of the method: as §1

alisertib = compound: COc1cc(Nc2ncc3c(n2)-c2ccc(Cl)cc2C(c2c(F)cccc2OC)=NC3)ccc1C(=O)O [alisertib]
Summary of the method: as §1

[2] = compound: COc1cc2nc(-c3cc(F)ccc3O)nc(N[C@@H]3CNC[C@H]3C(C)(C)O)c2cc1OC
Summary of the method: as §1

gefitinib = compound: COc1cc2ncnc(Nc3ccc(F)c(Cl)c3)c2cc1OCCCN1CCOCC1 [gefitinib]
Summary of the method: as §1

[3] = compound: COc1cccc2cc(-c3nc([C@H]4CC[C@H](C(=O)O)CC4)n4ncnc(N)c34)[nH]c12
Summary of the method: as §1

lapatinib = compound: CS(=O)(=O)CCNCc1ccc(-c2ccc3ncnc(Nc4ccc(OCc5cccc(F)c5)c(Cl)c4)c3c2)o1 [lapatinib]
Summary of the method: as §1

pictilisib = compound: CS(=O)(=O)N1CCN(Cc2cc3nc(-c4cccc5[nH]ncc45)nc(N4CCOCC4)c3s2)CC1 [pictilisib]
Summary of the method: as §1

Measured: log2 fold change

ERCC6 (UniProt Q03468)
inactive: [1] -0.067 | filanesib -0.268 | zotarolimus 0.102 | idasanutlin -0.14 | alisertib 0.102 | [2] -0.002 | gefitinib 0.026 | [3] -0.042 | lapatinib 0.077 | pictilisib -0.04

FAF2 (UniProt Q96CS3)
inactive: [1] -0.019 | filanesib -0.022 | zotarolimus 0.035 | idasanutlin 0.007 | alisertib 0.004 | [2] -0.011 | gefitinib 0.056 | [3] 0.009 | lapatinib 0.029 | pictilisib 0.017

ESD (UniProt P10768)
inactive: [1] -0.029 | filanesib -0.031 | zotarolimus 0.011 | idasanutlin -0.008 | alisertib 0.035 | [2] -0.005 | gefitinib -0.017 | [3] 0.068 | lapatinib -0.034 | pictilisib -0.043

EXOC4 (UniProt Q96A65)
inactive: [1] 0.029 | filanesib 0.009 | zotarolimus 0.065 | idasanutlin -0.052 | alisertib -0.002 | [2] 0.164 | gefitinib 0.002 | [3] -0.086 | lapatinib 0.008 | pictilisib -0.059

ESYT1 isoform 2 (UniProt Q9BSJ8)
inactive: [1] 0.042 | filanesib 0.013 | zotarolimus 0.08 | idasanutlin 0.08 | alisertib -0.094 | [2] 0.008 | gefitinib 0.053 | [3] -0.122 | lapatinib 0.089 | pictilisib -0.038

FAHD1 (UniProt Q6P587)
inactive: [1] -0.029 | filanesib -0.035 | zotarolimus -0.079 | idasanutlin -0.021 | alisertib -0.039 | [2] -0.014 | gefitinib 0.016 | [3] 0.061 | lapatinib -0.032 | pictilisib -0.107

FAM117A (UniProt Q9C073)
inactive: [1] 0.105 | filanesib -0.025 | zotarolimus 0.008 | idasanutlin 0.076 | alisertib 0 | [2] -0.059 | gefitinib -0.004 | [3] 0.024 | lapatinib -0.026 | pictilisib -0.019

FAH (UniProt P16930)
inactive: [1] -0.013 | filanesib -0.018 | zotarolimus 0.059 | idasanutlin -0.03 | alisertib -0.019 | [2] -0.025 | gefitinib -0.026 | [3] 0.093 | lapatinib -0.034 | pictilisib -0.028

EPB41L3 (UniProt Q9Y2J2)
inactive: [1] -0.162 | filanesib 0.091 | zotarolimus -0.019 | idasanutlin 0.002 | alisertib -0.042 | [2] -0.024 | gefitinib 0.027 | [3] -0.03 | lapatinib -0.045 | pictilisib 0.06

EXOC3 (UniProt O60645)
inactive: [1] 0.209 | filanesib -0.026 | zotarolimus 0.033 | idasanutlin -0.079 | alisertib -0.038 | [2] 0.146 | gefitinib 0.023 | [3] -0.108 | lapatinib -0.036 | pictilisib -0.104

EXOSC4 (UniProt Q9NPD3)
inactive: [1] -0.034 | filanesib -0.016 | zotarolimus -0.024 | idasanutlin -0.029 | alisertib -0.125 | [2] -0.053 | gefitinib -0.001 | [3] 0.053 | lapatinib 0.118 | pictilisib -0.051

ETNPPL (UniProt Q8TBG4)
inactive: [1] -0.244 | filanesib 0.189 | zotarolimus -0.197 | idasanutlin 0.07 | alisertib -0.009 | [2] 0.017 | gefitinib -0.039 | [3] 0.252 | lapatinib -0.108 | pictilisib -0.095

EPHX2 (UniProt P34913)
inactive: [1] -0.019 | filanesib -0.096 | zotarolimus -0.017 | idasanutlin -0.089 | alisertib -0.053 | [2] -0.009 | gefitinib 0 | [3] 0.055 | lapatinib -0.041 | pictilisib 0.062

FAH isoform 2 (UniProt P16930)
inactive: [1] -0.054 | filanesib -0.065 | zotarolimus -0.031 | idasanutlin -0.288 | alisertib -0.077 | [2] 0.077 | gefitinib -0.088 | [3] 0.034 | lapatinib -0.006 | pictilisib 0.082

ESRRA (UniProt P11474)
inactive: [1] -0.083 | filanesib -0.028 | zotarolimus 0.02 | idasanutlin 0.077 | alisertib 0.183 | [2] 0.044 | gefitinib -0.083 | [3] -0.11 | lapatinib 0.009 | pictilisib 0.041

Random excerpt: two records from the list
ESD (UniProt P10768)
inactive: [1] -0.029 | filanesib -0.031 | zotarolimus 0.011 | idasanutlin -0.008 | alisertib 0.035 | [2] -0.005 | gefitinib -0.017 | [3] 0.068 | lapatinib -0.034 | pictilisib -0.043

ETNPPL (UniProt Q8TBG4)
inactive: [1] -0.244 | filanesib 0.189 | zotarolimus -0.197 | idasanutlin 0.07 | alisertib -0.009 | [2] 0.017 | gefitinib -0.039 | [3] 0.252 | lapatinib -0.108 | pictilisib -0.095

Additional entries.

FAM120A isoform 6 (UniProt Q9NZB2)
inactive: [1] -0.092 | filanesib 0.125 | zotarolimus -0.06 | idasanutlin 0.094 | alisertib -0.067 | [2] -0.1 | gefitinib -0.053 | [3] -0.052 | lapatinib 0.105 | pictilisib -0.183

EXOC8 (UniProt Q8IYI6)
inactive: [1] 0.005 | filanesib -0.044 | zotarolimus 0.056 | idasanutlin -0.072 | alisertib 0.014 | [2] 0.038 | gefitinib -0.047 | [3] -0.003 | lapatinib -0.054 | pictilisib -0.156

ERCC4 (UniProt Q92889)
inactive: [1] -0.338 | filanesib -0.133 | zotarolimus -0.113 | idasanutlin -0.045 | alisertib 0.252 | [2] 0.157 | gefitinib -0.023 | [3] 0.239 | lapatinib 0.044 | pictilisib 0.465

EXOSC6 (UniProt Q5RKV6)
inactive: [1] -0.062 | filanesib -0.035 | zotarolimus -0.006 | idasanutlin -0.009 | alisertib -0.04 | [2] -0.08 | gefitinib -0.013 | [3] 0.038 | lapatinib 0.035 | pictilisib 0.031

F11R (UniProt Q9Y624)
inactive: [1] 0.024 | filanesib 0.055 | zotarolimus 0.02 | idasanutlin -0.032 | alisertib -0.048 | [2] 0.059 | gefitinib 0.017 | [3] 0.074 | lapatinib -0.05 | pictilisib 0.015

ERMP1 (UniProt Q7Z2K6)
inactive: [1] 0.013 | filanesib -0.02 | zotarolimus -0.003 | idasanutlin -0.03 | alisertib -0.041 | [2] -0.041 | gefitinib -0.003 | [3] 0.037 | lapatinib 0.015 | pictilisib 0.001

ETFRF1 (UniProt Q6IPR1)
inactive: [1] -0.008 | filanesib 0.027 | zotarolimus -0.229 | idasanutlin -0.262 | alisertib -0.164 | [2] -0.014 | gefitinib 0.063 | [3] 0.093 | lapatinib 0.011 | pictilisib 0.035

EXOC6 (UniProt Q8TAG9)
inactive: [1] -0.021 | filanesib 0.017 | zotarolimus 0.151 | idasanutlin -0.058 | alisertib -0.013 | [2] 0.119 | gefitinib -0.037 | [3] -0.101 | lapatinib -0.052 | pictilisib -0.003

ETF1 (UniProt P62495)
inactive: [1] -0.03 | filanesib -0.055 | zotarolimus 0 | idasanutlin -0.072 | alisertib -0.034 | [2] 0.076 | gefitinib 0.008 | [3] 0.027 | lapatinib -0.055 | pictilisib 0.004

EPS15 (UniProt P42566)
inactive: [1] -0.016 | filanesib -0.048 | zotarolimus 0.05 | idasanutlin -0.032 | alisertib -0.026 | [2] 0.041 | gefitinib -0.019 | [3] -0.1 | lapatinib -0.017 | pictilisib 0.001

ERLIN1 (UniProt O75477)
inactive: [1] -0.013 | filanesib 0.031 | zotarolimus 0.037 | idasanutlin 0.128 | alisertib -0.092 | [2] -0.075 | gefitinib -0.051 | [3] -0.14 | lapatinib 0.006 | pictilisib -0.107

EZR (UniProt P15311)
inactive: [1] -0.03 | filanesib -0.015 | zotarolimus 0.027 | idasanutlin -0.021 | alisertib -0.051 | [2] 0.04 | gefitinib 0 | [3] -0.025 | lapatinib -0.01 | pictilisib -0.032

ERLIN2 (UniProt O94905)
inactive: [1] -0.006 | filanesib 0.039 | zotarolimus 0.034 | idasanutlin 0.09 | alisertib -0.085 | [2] -0.143 | gefitinib -0.058 | [3] -0.076 | lapatinib -0.019 | pictilisib -0.09

ERCC5 (UniProt P28715)
inactive: [1] 0.063 | filanesib 0.072 | zotarolimus 0.037 | idasanutlin -0.034 | alisertib 0.084 | [2] -0.043 | gefitinib -0.057 | [3] -0.149 | lapatinib 0.037 | pictilisib 0.062

ERVK3-1, A0A0U1RQV1
inactive: [1] -0.029 | filanesib -0.064 | zotarolimus -0.009 | idasanutlin 0.064 | alisertib -0.07 | [2] -0.184 | gefitinib 0.027 | [3] 0.051 | lapatinib -0.091 | pictilisib 0.016
